PubChem BioAssay AID720504 (National Center for Advancing Translational Sciences (NCATS), 2013)
Out of some 360,000 compounds screened, about 10,000 (2.8%) were called active. The inconclusive results got no clear call from the source; some entries with a clear call stand among them for comparison. Calls come from the whole dose curve; as a rule, active = well fitted inhibition curve with a large enough effect; inconclusive = small, poorly fitted or top-dose-only effect; inactive = flat fitted curve, though single readings scatter. Potencies of inconclusive entries are doubtful fits and often do not repeat.

Chains of the proteins cited; added tags and fusions are not shown.
UniProt P53350, whole entry, looked up: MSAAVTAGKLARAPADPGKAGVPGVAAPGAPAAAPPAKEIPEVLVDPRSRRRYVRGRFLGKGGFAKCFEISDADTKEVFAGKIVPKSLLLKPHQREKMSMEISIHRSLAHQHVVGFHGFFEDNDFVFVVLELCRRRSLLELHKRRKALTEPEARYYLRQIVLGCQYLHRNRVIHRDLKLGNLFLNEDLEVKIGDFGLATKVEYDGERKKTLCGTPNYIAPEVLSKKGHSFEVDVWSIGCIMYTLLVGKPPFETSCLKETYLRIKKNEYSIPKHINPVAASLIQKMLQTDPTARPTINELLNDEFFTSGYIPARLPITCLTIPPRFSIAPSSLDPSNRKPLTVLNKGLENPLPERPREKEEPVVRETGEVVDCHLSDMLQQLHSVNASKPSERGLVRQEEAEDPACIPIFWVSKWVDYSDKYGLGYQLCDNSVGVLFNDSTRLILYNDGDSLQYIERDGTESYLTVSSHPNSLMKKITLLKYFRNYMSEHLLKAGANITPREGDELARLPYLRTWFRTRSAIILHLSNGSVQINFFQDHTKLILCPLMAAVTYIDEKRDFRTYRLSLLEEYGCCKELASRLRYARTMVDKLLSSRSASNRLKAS

Target: Serine/threonine-protein kinase PLK1 (Homo sapiens) (UniProt P53350)
Test: qHTS for Inhibitors of PLK1-PDB (polo-like kinase 1 - polo-box domain): Primary Screen; note: nearly all actives have a fitted effect of over 65% in size; for max response, negative = inhibition: series mostly up to about 57 µM
Conditions: Plk1 PBD binding of FITC phosphopeptide, fluorescence polarization
% is set by controls: 0 for no effect and ±100 for the full control effect; potency is the fitted concentration of half-maximal effect.

Structure (SMILES) | Potency | max response, negative = inhibition
Cc1ccc(NNC(=S)Nc2ccc(C(C)C)cc2)c(C)c1 | active: 16.8 µM | 
Cc1ccc(F)c(S(=O)(=O)NC(=O)C2(C)CCN2C(=O)c2sccc2C)c1 (centres undefined) |  | inactive: 3.72%
CCOC(=O)Cn1c(CN2CCN(C(c3ccccc3)c3ccccc3)CC2)nc2c1c(=O)n(C)c(=O)n2C |  | inactive: -0.876%
Cc1ncoc1C(=O)Nc1ncc([N+](=O)[O-])s1 | inconclusive: 26.7 µM [inhibitor, partial curve] | 
COc1cc(SC#N)ccc1N=Cc1c(C)[nH]n(-c2ccc(Cl)cc2)c1=O | inconclusive: 29.9 µM [inhibitor, single point] | 
Cc1cc(C)c2cc3c(N)c(C(=O)N4CCOCC4)sc3nc2c1 | inconclusive: 37.7 µM [inhibitor, single point] | 
Cc1cccc(-n2c(N)cc(=O)nc2SCC(=O)Nc2cc(C)on2)c1 | inconclusive: 7.52 µM [inhibitor, partial curve] | 
C/C(CCC1CC(C)OC1=O)=N\NC(N)=S (centres undefined) | inconclusive: 29.9 µM [inhibitor, partial curve] | 
CCNC(=O)CC1C(=O)N(c2ccc(OC)cc2)C(=O)N1Cc1ccc(OC)cc1 (centres undefined) | active: 29.9 µM | 
Cc1cc(C)n2cc(CSc3nc4ccccc4[nH]3)nc2n1 | inconclusive: 26.7 µM [inhibitor, single point] | 
Fc1c(F)c(F)c(CSc2nc3ccccc3[nH]2)c(F)c1F | inconclusive: 26.7 µM [inhibitor, partial curve] | 
CCc1ccc(NC(=O)Nc2cc(C(=O)NCC3CCCO3)ccc2N2CC3CC(C2)c2cccc(=O)n2C3)cc1 (centres undefined) |  | inconclusive: -33.1% [inhibitor]
CCCC(=O)Nc1nc2c(OC)ccc(OC)c2s1 |  | inactive: -7.83%
CCN1C/C(=C/c2ccc(N3CCOCC3)cc2)C(=O)/C(=C/c2ccc(N3CCOCC3)cc2)C1 |  | inactive: -16%
COc1ccc(N(C(C)C(=O)NCCSCc2cccc(Cl)c2)S(C)(=O)=O)cc1 (centres undefined) |  | inactive: -3.53%
O=c1c2c3c(sc2nc2n1CCC2)CCCC3 | inconclusive: 23.8 µM [inhibitor, single point] | 
CSc1nc(O)c(C(c2ccc(F)cc2)c2c(O)nc(SC)[nH]c2=O)c(=O)[nH]1 | inconclusive: 21.2 µM [inhibitor, partial curve] | 
O=C(O)c1ccc2[nH]c3c(c2c1)CSCC3 | inconclusive: 23.8 µM [inhibitor, partial curve] | 
CSCCC(NS(=O)(=O)c1ccccc1)C(=O)Nc1nccs1 (centres undefined) | inconclusive: 29.9 µM [inhibitor, single point] | 

Record cards, from the list above:
CCc1ccc(NC(=O)Nc2cc(C(=O)NCC3CCCO3)ccc2N2CC3CC(C2)c2cccc(=O)n2C3)cc1 (centres undefined) as listed: max response, negative = inhibition: inconclusive: -33.1% [inhibitor]
Cc1ccc(NNC(=S)Nc2ccc(C(C)C)cc2)c(C)c1 as listed: Potency: active: 16.8 µM
